In US20250283871A1, “COMPOSITIONS AND METHODS FOR MODULATING THE INTERACTION BETWEEN SS18-SSX FUSION ONCOPROTEIN AND NUCLEOSOMES” (Dana-Farber Cancer Institute, Inc., priority 2020, published 2025):

B1: TRMT10C (protein)
chain: MSSKIPAVTYPKNESTPPSEELELDKWKTTMKSSVQEECVSTISSSKDEDPLAATREFIEMWRLLGREVPEHITEEELKTLMECVSNTAKKKYLKYLYTKEKVKKARQIKKEMKAAAREEAKNIKLLETTEEDKQKNFLFLRLWDRNMDIAMGWKGAQAMQFGQPLVFDMAYENYMKRKELQNTVSQLLESEGWNRRNVDPFHIYFCNLKIDGALHRELVKRYQEKWDKLLLTSTEKSHVDLFPKDSIIYLTADSPNVMTTFRHDKVYVIGSFVDKSMQPGTSLAKAKRLNLATECLPLDKYLQWEIGNKNLTLDQMIRILLCLKNNGNWQEALQFVPKRKHTGFLEISQHSQEFINRLKKAKT
B2: FIP1L1 (protein)
chain: MSAGEVERLVSELSGGTGGDEEEEWLYGGPWDVHVHSDLAKDLDENEVERPEEENASANPPSGIEDETAENGVPKPKVTETEDDSDSDSDDDEDDVHVTIGDIKTGAPQYGSYGTAPVNLNIKTGGRVYGTTGTKVKGVDLDAPGSINGVPLLEVDLDSFEDKPWRKPGADLSDYFNYGFNEDTWKAYCEKQKRIRMGLEVIPVTSTTNKITAEDCTMEVTPGAEIQDGRFNLFKVQQGRTGNSEKETALPSTKAEFTSPPSLFKTGLPPSRNSTSSQSQTSTASRKANSSVGKWQDRYGRAESPDLRRLPGAIDVIGQTITISRVEGRRRANENSNIQVLSERSATEVDNNFSKPPPFFPPGAPPTHLPPPPFLPPPPTVSTAPPLIPPPGFPPPPGAPPPSLIPTIESGHSSGYDSRSARAFPYGNVAFPHLPGSAPSWPSLVDTSKQWDYYARREKDRDRERDRDRERDRDRDRERERTRERERERDHSPTPSVFNSDEERYRYREYAERGYERHRASREKEERHRERRHREKEETRHKSSRSNSRRRHESEEGDSHRRHKHKKSKRSKEGKEAGSEPAPEQESTEATPAE
B3: SLC25A24 (protein, UniProt Q6NUK1 1-477, looked up)
Mitochondrial adenyl …: MLRWLRDFVLPTAACQDAEQPTRYETLFQALDRNGDGVVDIGELQEGLRNLGIPLGQDAEEKIFTTGDVNKDGKLDFEEFMKYLKDHEKKMKLAFKSLDKNNDGKIEASEIVQSLQTLGLTISEQQAELILQSIDVDGTMTVDWNEWRDYFLFNPVTDIEEIIRFWKHSTGIDIGDSLTIPDEFTEDEKKSGQWWRQLLAGGIAGAVSRTSTAPLDRLKIMMQVHGSKSDKMNIFGGFRQMVKEGGIRSLWRGNGTNVIKIAPETAVKFWAYEQYKKLLTEEGQKIGTFERFISGSMAGATAQTFIYPMEVMKTRLAVGKTGQYSGIYDCAKKILKHEGLGAFYKGYVPNLLGIIPYAGIDLAVYELLKSYWLDNFAKDSVNPGVMVLLGCGALSSTCGQLASYPLALVRTRMQAQAMLEGSPQLNMVGLFRRIISKEGIPGLYRGITPNFMKVLPAVGISYVVYENMKQTLGVTQK
B4: SUCLG2 (protein, UniProt Q96I99 38-432, looked up)
Succinate--CoA ligase …: LNLQEYQSKKLMSDNGVRVQRFFVADTANEALEAAKRLNAKEIVLKAQILAGGRGKGVFNSGLKGGVHLTKDPNVVGQLAKQMIGYNLATKQTPKEGVKVNKVMVAEALDISRETYLAILMDRSCNGPVLVGSPQGGVDIEEVAASNPELIFKEQIDIFEGIKDSQAQRMAENLGFVGPLKSQAADQITKLYNLFLKIDATQVEVNPFGETPEGQVVCFDAKINFDDNAEFRQKDIFAMDDKSENEPIENEAAKYDLKYIGLDGNIACFVNGAGLAMATCDIIFLNGGKPANFLDLGGGVKEAQVYQAFKLLTADPKVEAILVNIFGGIVNCAIIANGITKACRELELKVPLVVRLEGTNVQEAQKILNNSGLPITSAIDLEDAAKKAVASVAKK
B5: CHD1L (protein, UniProt Q86WJ1 1-897, looked up)
Chromodomain-helicase-DNA-bind …: MERAGATSRGGQAPGFLLRLHTEGRAEAARVQEQDLRQWGLTGIHLRSYQLEGVNWLAQRFHCQNGCILGDEMGLGKTCQTIALFIYLAGRLNDEGPFLILCPLSVLSNWKEEMQRFAPGLSCVTYAGDKEERACLQQDLKQESRFHVLLTTYEICLKDASFLKSFPWSVLVVDEAHRLKNQSSLLHKTLSEFSVVFSLLLTGTPIQNSLQELYSLLSFVEPDLFSKEEVGDFIQRYQDIEKESESASELHKLLQPFLLRRVKAEVATELPKKTEVVIYHGMSALQKKYYKAILMKDLDAFENETAKKVKLQNILSQLRKCVDHPYLFDGVEPEPFEVGDHLTEASGKLHLLDKLLAFLYSGGHRVLLFSQMTQMLDILQDYMDYRGYSYERVDGSVRGEERHLAIKNFGQQPIFVFLLSTRAGGVGMNLTAADTVIFVDSDFNPQNDLQAAARAHRIGQNKSVKVIRLIGRDTVEEIVYRKAASKLQLTNMIIEGGHFTLGAQKPAADADLQLSEILKFGLDKLLASEGSTMDEIDLESILGETKDGQWVSDALPAAEGGSRDQEEGKNHMYLFEGKDYSKEPSKEDRKSFEQLVNLQKTLLEKASQEGRSLRNKGSVLIPGLVEGSTKRKRVLSPEELEDRQKKRQEAAAKRRRLIEEKKRQKEEAEHKKKMAWWESNNYQSFCLPSEESEPEDLENGEESSAELDYQDPDATSLKYVSGDVTHPQAGAEDALIVHCVDDSGHWGRGGLFTALEKRSAEPRKIYELAGKMKDLSLGGVLLFPVDDKESRNKGQDLLALIVAQHRDRSNVLSGIKMAALEEGLKKIFLAAKKKKASVHLPRIGHATKGFNWYGTERLIRKHLAARGIPTYIYYFPRSKSAVLHSQSSSSSSRQLVP
B6: HSPD1 (protein, UniProt P10809 27-573, looked up)
60 kDa heat shock protein, …: AKDVKFGADARALMLQGVDLLADAVAVTMGPKGRTVIIEQSWGSPKVTKDGVTVAKSIDLKDKYKNIGAKLVQDVANNTNEEAGDGTTTATVLARSIAKEGFEKISKGANPVEIRRGVMLAVDAVIAELKKQSKPVTTPEEIAQVATISANGDKEIGNIISDAMKKVGRKGVITVKDGKTLNDELEIIEGMKFDRGYISPYFINTSKGQKCEFQDAYVLLSEKKISSIQSIVPALEIANAHRKPLVIIAEDVDGEALSTLVLNRLKVGLQVVAVKAPGFGDNRKNQLKDMAIATGGAVFGEEGLTLNLEDVQPHDLGKVGEVIVTKDDAMLLKGKGDKAQIEKRIQEIIEQLDVTTSEYEKEKLNERLAKLSDGVAVLKVGGTSDVEVNEKKDRVTDALNATRAAVEEGIVLGGGCALLRCIPALDSLTPANEDQKIGIEIIKRTLKIPAMTIAKNAGVEGSLIVEKIMQSSSEVGYDAMAGDFVNMVEKGIIDPTKVVRTALLDAAGVASLLTTAEVVVTEIPKEEKDPGMGAMGGMGGGMGGGMF
B7: YME1L1 (protein, UniProt Q96TA2 1-773, looked up)
ATP-dependent zinc …: MFSLSSTVQPQVTVPLSHLINAFHTPKNTSVSLSGVSVSQNQHRDVVPEHEAPSSECMFSDFLTKLNIVSIGKGKIFEGYRSMFMEPAKRMKKSLDTTDNWHIRPEPFSLSIPPSLNLRDLGLSELKIGQIDQLVENLLPGFCKGKNISSHWHTSHVSAQSFFENKYGNLDIFSTLRSSCLYRHHSRALQSICSDLQYWPVFIQSRGFKTLKSRTRRLQSTSERLAETQNIAPSFVKGFLLRDRGSDVESLDKLMKTKNIPEAHQDAFKTGFAEGFLKAQALTQKTNDSLRRTRLILFVLLLFGIYGLLKNPFLSVRFRTTTGLDSAVDPVQMKNVTFEHVKGVEEAKQELQEVVEFLKNPQKFTILGGKLPKGILLVGPPGTGKTLLARAVAGEADVPFYYASGSEFDEMFVGVGASRIRNLFREAKANAPCVIFIDELDSVGGKRIESPMHPYSRQTINQLLAEMDGFKPNEGVIIIGATNFPEALDNALIRPGRFDMQVTVPRPDVKGRTEILKWYLNKIKFDQSVDPEIIARGTVGFSGAELENLVNQAALKAAVDGKEMVTMKELEFSKDKILMGPERRSVEIDNKNKTITAYHESGHAIIAYYTKDAMPINKATIMPRGPTLGHVSLLPENDRWNETRAQLLAQMDVSMGGRVAEELIFGTDHITTGASSDFDNATKIAKRMVTKFGMSEKLGVMTYSDTGKLSPETQSAIEQEIRILLRDSYERAKHILKTHAKEHKNLAEALLTYETLDAKEIQIVLEGKKLEVR
B8: ALDH1B1 (protein, UniProt P30837 18-517, looked up)
Aldehyde dehydrogenase X, …: RYSSAAALPSPILNPDIPYNQLFINNEWQDAVSKKTFPTVNPTTGEVIGHVAEGDRADVDRAVKAAREAFRLGSPWRRMDASERGRLLNRLADLVERDRVYLASLETLDNGKPFQESYALDLDEVIKVYRYFAGWADKWHGKTIPMDGQHFCFTRHEPVGVCGQIIPWNFPLVMQGWKLAPALATGNTVVMKVAEQTPLSALYLASLIKEAGFPPGVVNIITGYGPTAGAAIAQHVDVDKVAFTGSTEVGHLIQKAAGDSNLKRVTLELGGKSPSIVLADADMEHAVEQCHEALFFNMGQCCCAGSRTFVEESIYNEFLERTVEKAKQRKVGNPFELDTQQGPQVDKEQFERVLGYIQLGQKEGAKLLCGGERFGERGFFIKPTVFGGVQDDMRIAKEEIFGPVQPLFKFKKIEEVVERANNTRYGLAAAVFTRDLDKAMYFTQALQAGTVWVNTYNIVTCHTPFGGFKESGNGRELGEDGLKAYTEVKTVTIKVPQKNS
B9: PCK2 (protein, UniProt Q16822 33-640, looked up)
Phosphoenolpyruvate …: LSGDLGQLPTGIRDFVEHSARLCQPEGIHICDGTEAENTATLTLLEQQGLIRKLPKYNNCWLARTDPKDVARVESKTVIVTPSQRDTVPLPPGGARGQLGNWMSPADFQRAVDERFPGCMQGRTMYVLPFSMGPVGSPLSRIGVQLTDSAYVVASMRIMTRLGTPVLQALGDGDFVKCLHSVGQPLTGQGEPVSQWPCNPEKTLIGHVPDQREIISFGSGYGGNSLLGKKCFALRIASRLARDEGWLAEHMLILGITSPAGKKRYVAAAFPSACGKTNLAMMRPALPGWKVECVGDDIAWMRFDSEGRLRAINPENGFFGVAPGTSATTNPNAMATIQSNTIFTNVAETSDGGVYWEGIDQPLPPGVTVTSWLGKPWKPGDKEPCAHPNSRFCAPARQCPIMDPAWEAPEGVPIDAIIFGGRRPKGVPLVYEAFNWRHGVFVGSAMRSESTAAAEHKGKIIMHDPFAMRPFFGYNFGHYLEHWLSMEGRKGAQLPRIFHVNWFRRDEAGHFLWPGFGENARVLDWICRRLEGEDSARETPIGLVPKEGALDLSGLRAIDTTQLFSLPKDFWEQEVRDIRSYLTEQVNQDLPKEVLAELEALERRVHKM

system: BAF complex subunits and histone proteins; experiment: Mass spectrometry proteomics of purified HA-SS18 WT and HA-SS18-SSX1 complexes (Tables 5A-5E); design: species or system human; details: HA-SS18SSX1 purification, NE (soluble nuclear extract) fraction, HEK-293T; peptides per identified protein

Molecule | Total (total peptides) | Unique (unique peptides)
B1 | 11 | 10
B2 | 11 | 9
B3 | 10 | 10
B4 | 10 | 10
B5 | 10 | 10
B6 | 10 | 10
B7 | 9 | 9
B8 | 9 | 9
B9 | 9 | 9

same assay, conditions: HA-SS18WT_NE_peptides: HA-SS18 WT complexes purified from nuclear extract (NE), HEK-293T; label = protein identified (Gene Symbol)

Molecule | Total (peptides) | Unique (peptides)
B1 | 15 | 15
B2 | 11 | 9
B3 | 10 | 10
B4 | 10 | 9
B6 | 12 | 12
B7 | 6 | 6
B8 | 13 | 12
B9 | 7 | 7
